# Values from PubChem BioAssay AID1671195 (Yale University, 2021).
# Aim: 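Regulators of LDL receptor activity judged by labelled LDL uptake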 (primary screen)
# Cells: human Huh7 hepatoma cells
# Reagents: siRNA pool against human genes, 18 nM
# Time to read-out: about 2 to 2.5 days of knockdown, then 8 h LDL uptake
# Treatment: DiI-labelled LDL at 30 µg/ml for 8 h, in lipoprotein-deficient serum medium
# Read-out: 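Per-cell DiI-LDL intensity by automated imaging; well means scaled to the plate median and given as a robust z-score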
# Scale: robust z-score: higher = more LDL uptake after knockdown
# Hit rule: 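Active when two or more replicates show a robust z-score above 2 or below -2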
# In all, the deposit lists about 22,000 reagents; this is a part drawn at random. About 1,510 of all reagents (6.9%) count as active. 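Active includes knockdowns raising or lowering LDL uptake; positive z-scores mean more uptake, negative mean less.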 A number with no mark means an inactive call.
target,"robust z-score, replicate 1","robust z-score, replicate 2","robust z-score, replicate 3"
GPX3 (glutathione peroxidase 3),0.92,1.16,1.44
IL4 (interleukin 4),-2.2 (active),-2.06,-2.01
SPMIP2 (sperm microtubule inner protein 2),-1.16,-1.44,-1.55
LOC388949 (retired record),0.134,-0.033,0.162
FRMD6-AS1 (FRMD6 antisense RNA 1),0.985,0.653,0.259
CEMIP2 (cell migration inducing hyaluronidase 2),-0.949,0.628,-0.988
ZNHIT2 (zinc finger HIT-type containing 2),-0.389,-0.64,-1.35
TIGD6 (tigger transposable element derived 6),-0.775,-0.57,-0.725
COPS7A (COP9 signalosome subunit 7A),0.547,-0.493,0.378
LOC442199 (retired record),0.928,-0.147,-0.0648
SLC25A11,3.7 (active),3.71,4.4
NCOR1 (nuclear receptor corepressor 1),-0.0294,0.138,0.706
ZNF525 (zinc finger protein 525),-0.0785,0.184,-0.256
ACE2 (angiotensin converting enzyme 2),-0.101,-0.605,-0.492
PSEN2 (presenilin 2),2.7 (active),1.91,3.1
"TEFM (transcription elongation factor, mitochondrial)",2.88,1.77,1.39
SPON2 (spondin 2),-0.678,-0.891,-0.37
VPS9D1 (VPS9 domain containing 1),2.25 (active),1.73,2.02
CCL19 (C-C motif chemokine ligand 19),0.224,0.178,0.518
RNF125 (ring finger protein 125),-1.26,-1.33,-1.49
FN3KRP (fructosamine 3 kinase related protein),1.11 (active),2.08,2.96
LINC02153 (long independently transcribed non-coding RNA 2153),-0.856,-0.914,-0.915
SSC4D,0.206,-0.34,0.136
MEDAG (mesenteric estrogen dependent adipogenesis),1.71,1.52,1.64
PUM1 (pumilio RNA binding family member 1),1.02,0.738,1.55
MOV10 (Mov10 RNA helicase),-0.995,-0.472,-0.792
"RAP1B (RAP1B, member of RAS oncogene family)",1.87,0.964,3.54
LOC441500 (retired record),0.00721,-0.707,-0.608
C1orf198 (chromosome 1 open reading frame 198),2.69 (active),2.21,3.24
RERE (arginine-glutamic acid dipeptide repeats),-0.865,-0.166,-1.32
ZNF433 (zinc finger protein 433),1.46,1.51,1.58
POLR2J (RNA polymerase II subunit J),-1,-1.52,-0.959
LHFPL4 (LHFPL tetraspan subfamily member 4),-1.27,-1.44,-1.36
CEP170P1 (centrosomal protein 170 pseudogene 1),-1.66,-1.7,-1.86
RABAC1 (Rab acceptor 1),-0.501,-0.702,-1.01
GOSR2 (golgi SNAP receptor complex member 2),1.3,1.46,1.68
HOXD8 (homeobox D8),-0.788,-0.537,0.0836
LOC390827 (retired record),-0.633,-1.04,-0.978
"NAA35 (N-alpha-acetyltransferase 35, NatC auxiliary subunit)",0.247,0.502,0.576
AGPS (alkylglycerone phosphate synthase),0.247,0.855,1.02
SLC28A1,1.33,1.3,1
BMP2KL (BMP2 inducible kinase like (pseudogene)),0.474,0.7,0.74
CSNK1D (casein kinase 1 delta),-0.479,1.28,-0.207
QPCTL (glutaminyl-peptide cyclotransferase like),-1.02,-0.201,-0.414
SSPN (sarcospan),-0.944,1.78,0.313
MED31 (mediator complex subunit 31),1.39,0.658,0.803

Just “robust z-score, replicate 2” (6 entries from above):
RERE (arginine-glutamic acid dipeptide repeats) = -0.166
ZNF433 (zinc finger protein 433) = 1.51
POLR2J (RNA polymerase II subunit J) = -1.52
LHFPL4 (LHFPL tetraspan subfamily member 4) = -1.44
CEP170P1 (centrosomal protein 170 pseudogene 1) = -1.7
RABAC1 (Rab acceptor 1) = -0.702
